We go through 13 compounds from PubChem BioAssay AID248 (DTP/NCI, 2004).

This experiment has as its system L1210 leukemia ip in BDF1 mice, survival T/C. Kind of experiment: NCI In Vivo Anticancer Drug Screen. Data for tumor model L1210 Leukemia (intraperitoneal) in B6D2F1 (BDF1) mice. The following applies: T/C endpoint: mean survival time, higher T/C = longer survival.
Setting [1] is: dose: 10.0 mg/kg/injection, schedule: Q01DX009 (ip), vehicle: Klucel (hydroxypropylcellulose) (HPC).
The mark [2] stands for this setting: dose: 20.0 mg/kg/injection, schedule: Q01DX009 (ip), vehicle: Klucel (hydroxypropylcellulose) (HPC).
The mark [3] stands for this setting: dose: 20.0 mg/kg/injection, schedule: Q04DX003 (ip), vehicle: Klucel (hydroxypropylcellulose) (HPC).
[4] abbreviates: dose: 40.0 mg/kg/injection, schedule: Q04DX003 (ip), vehicle: Klucel (hydroxypropylcellulose) (HPC).
Setting [5] is: dose: 300.0 mg/kg/injection, schedule: Q01DX001 (ip), vehicle: other.
Setting [6] is: dose: 400.0 mg/kg/injection, schedule: Q01DX001 (ip), vehicle: carboxymethylcellulose (CMC).
The mark [7] stands for this setting: dose: 100.0 mg/kg/injection, schedule: Q04DX003 (ip), vehicle: Klucel (hydroxypropylcellulose) (HPC).
[8] abbreviates: dose: 200.0 mg/kg/injection, schedule: Q04DX003 (ip), vehicle: Klucel (hydroxypropylcellulose) (HPC).
Where [9] appears, read: dose: 400.0 mg/kg/injection, schedule: Q04DX003 (ip), vehicle: Klucel (hydroxypropylcellulose) (HPC).
Setting [10] is: dose: 30.0 mg/kg/injection, schedule: Q01DX009 (ip), vehicle: Klucel (hydroxypropylcellulose) (HPC).

The list does not hold the whole screen: it is rich in T/C values a quarter to a half above the control, in often repeated tests (any T/C) and in doses without a T/C. Other doses and runs of a compound stand elsewhere. T/C: endpoint of the treated group in % of that of the vehicle group. Some entries give survivors of the animals treated and no T/C: the source holds a T/C of zero for them, seemingly a mark for toxic or unscored doses. Some doses without a T/C left all or most animals alive at the check, yet need not have been tolerated: survival well below the control is almost never listed, so the zero probably covers shortened survival too. Counts of survivors are from the toxicity check (mostly the fifth day) where no day follows; animals may have died later. Schedule codes are those of the source, read here as Q, the interval in days (D) or hours (H), X, the number of doses. For survival time, this PubChem deposit counts one and a half times the control or more as active, and values a quarter to a half above the control carry no call in these data; other NCI protocols may use other cut-offs. Some entries were tested several times; the values are given in rising order. Some T/C values are followed by the survivors on the day toxicity was checked, most often the fifth; without a count, all were alive then.

As to `Cc1cccc2c(Nc3ccc(NS(C)(=O)=O)cc3)c3ccccc3nc12`, the T/C (dose: 1.25 mg/kg/injection, schedule: Q01DX009 (ip), vehicle: Klucel (hydroxypropylcellulose) (HPC)) was 127 % of control; the T/C under setting [1] is 149 % of control; the T/C under setting [2] is 140 % of control; the T/C (dose: 20.0 mg/kg/injection, schedule: Q01DX009 (ip), vehicle: saline) is 129 % of control; the T/C under setting [3] is 141 % of control; the T/C (dose: 20.0 mg/kg/injection, schedule: Q04DX003 (ip), vehicle: saline with Tween-80) is 127 % of control. Moreover, the T/C is, setting by setting: under setting [4], 144 % of control; (dose: 80.0 mg/kg/injection, schedule: Q01DX001 (ip), vehicle: saline with Tween-80) 130 % of control; (dose: 80.0 mg/kg/injection, schedule: Q01DX009 (sc), vehicle: saline) 134 % of control; (dose: 160.0 mg/kg/injection, schedule: Q01DX001 (ip), vehicle: saline with Tween-80) 142 % of control; (dose: 320.0 mg/kg/injection, schedule: Q04DX003 (ip), vehicle: Klucel (hydroxypropylcellulose) (HPC)) 135 % of control. For the same compound, the survivor count is, setting by setting: (dose: 10.0 mg/kg/injection, schedule: Q01DX009 (ip), vehicle: saline) 2 of 6; (dose: 40.0 mg/kg/injection, schedule: Q01DX009 (ip), vehicle: saline) 6 of 6; (dose: 80.0 mg/kg/injection, schedule: Q01DX009 (ip), vehicle: Klucel (hydroxypropylcellulose) (HPC)) 6 of 6; (dose: 800.0 mg/kg/injection, schedule: Q04DX003 (ip), vehicle: saline) 6 of 6.

Regarding `O=C(NNc1ccccc1)Nc1ccccc1`, the survivor count was 6 of 6 (dose: 200.0 mg/kg/injection, schedule: Q01DX009 (ip), vehicle: Klucel (hydroxypropylcellulose) (HPC)) and 1 of 6 (dose: 400.0 mg/kg/injection, schedule: Q01DX009 (ip), vehicle: Klucel (hydroxypropylcellulose) (HPC)).

As to `O=NN(CCF)C(=O)Nc1c[nH]c(=O)[nH]c1=O`, under “dose: 10.0 mg/kg/injection, schedule: Q01DX001 (ip), vehicle: carboxymethylcellulose (CMC)”, the T/C is 136 % of control. In addition, the survivor count reads like this: (dose: 30.0 mg/kg/injection, schedule: Q01DX001 (ip), vehicle: carboxymethylcellulose (CMC)) 1 of 6; (dose: 40.0 mg/kg/injection, schedule: Q01DX001 (ip), vehicle: carboxymethylcellulose (CMC)) 0 of 6; (dose: 60.0 mg/kg/injection, schedule: Q01DX001 (ip), vehicle: carboxymethylcellulose (CMC)) 0 of 6; (dose: 93.0 mg/kg/injection, schedule: Q01DX001 (ip), vehicle: carboxymethylcellulose (CMC)) 0 of 6; (dose: 187.0 mg/kg/injection, schedule: Q01DX001 (ip), vehicle: carboxymethylcellulose (CMC)) 0 of 6; (dose: 250.0 mg/kg/injection, schedule: Q01DX001 (ip), vehicle: carboxymethylcellulose (CMC)) 0 of 6. In addition, the survivor count runs as follows: (dose: 375.0 mg/kg/injection, schedule: Q01DX001 (ip), vehicle: carboxymethylcellulose (CMC)) 0 of 6; (dose: 500.0 mg/kg/injection, schedule: Q01DX001 (ip), vehicle: carboxymethylcellulose (CMC)) 0 of 6; (dose: 750.0 mg/kg/injection, schedule: Q01DX001 (ip), vehicle: carboxymethylcellulose (CMC)) 0 of 6.

`COCC(=N)C(C#N)(OC)C(=O)c1ccccc1` (stereo unspecified): under setting [5], the survivor count was 1 of 6.

For the compound `CC(C)N=Cc1ccccc1O.CC(C)N=Cc1ccccc1O.[Cu]`, the survivor count by setting is: (dose: 150.0 mg/kg/injection, schedule: Q01DX001 (ip), vehicle: other) 2 of 6; under setting [5], 0 of 6.

Take `CCc1ccc(NC(=S)NC(=O)/C=C/c2ccccc2)cc1`: the survivor count (dose: 200.0 mg/kg/injection, schedule: Q04DX003 (ip), vehicle: saline with Tween-80) is listed as 6 of 6.

For the compound `O=C(O)c1ccc([N+](=O)[O-])cc1F`, the survivor count reads like this: under setting [6], 2 of 6; (dose: 400.0 mg/kg/injection, schedule: Q01DX009 (ip), vehicle: carboxymethylcellulose (CMC)) 2 of 3; (dose: 400.0 mg/kg/injection, schedule: Q04DX003 (ip), vehicle: carboxymethylcellulose (CMC)) 6 of 6.

In the case of `CCOC(=O)C(O)(CC)c1cc[n+](Cc2cc3ccccc3nc2Cl)cc1C` (stereo unspecified), the survivor count (dose: 200.0 mg/kg/injection, schedule: Q01DX001 (ip), vehicle: saline) is recorded as 2 of 6.

On to `Cc1ccc2[nH]c(=O)cc(C)c2c1`, for which the survivor count is on record as 0 of 6 (dose: 200.0 mg/kg/injection, schedule: Q01DX001 (ip), vehicle: carboxymethylcellulose (CMC)) and 0 of 6 under setting [6].

`Cc1no[n+]([O-])c1[N+](=O)[O-]`: the survivor count (dose: 40.0 mg/kg/injection, schedule: Q04DX003 (ip), vehicle: saline) is given as 2 of 6; the survivor count (dose: 80.0 mg/kg/injection, schedule: Q04DX003 (ip), vehicle: saline) is given as 0 of 6; the survivor count under setting [7] is given as 0 of 6; the survivor count under setting [8] is on record as 0 of 6; the survivor count under setting [9] is on record as 0 of 6.

For the compound `COc1cc(C=Nc2ccc(-n3ccnc3C)cc2)ccc1N(CCCl)CCCl`, the T/C is 131 % of control (dose: 3.8 mg/kg/injection, schedule: Q04DX003 (ip), vehicle: Klucel (hydroxypropylcellulose) (HPC)); 125 % of control (dose: 4.0 mg/kg/injection, schedule: Q01DX009 (ip), vehicle: Klucel (hydroxypropylcellulose) (HPC)); 129 % of control [5 of 6 alive] (dose: 5.8 mg/kg/injection, schedule: Q04DX003 (ip), vehicle: Klucel (hydroxypropylcellulose) (HPC)); 148 % of control (dose: 8.8 mg/kg/injection, schedule: Q01DX009 (ip), vehicle: Klucel (hydroxypropylcellulose) (HPC)); 144 % of control under setting [1]; 128 % of control [5 of 6 alive] (dose: 13.3 mg/kg/injection, schedule: Q01DX009 (ip), vehicle: Klucel (hydroxypropylcellulose) (HPC)). Further, the T/C is, setting by setting: (dose: 13.3 mg/kg/injection, schedule: Q04DX003 (ip), vehicle: Klucel (hydroxypropylcellulose) (HPC)) 131 and 137 % of control; under setting [3], 130, 131, 135 % of control; under setting [10], 127 % of control. Also, the survivor count is 6 of 6 under setting [2]; 2 of 6 under setting [10]; 3 of 6 under setting [4]; 1 of 6 (dose: 45.0 mg/kg/injection, schedule: Q04DX003 (ip), vehicle: Klucel (hydroxypropylcellulose) (HPC)); 0 of 6 (dose: 70.0 mg/kg/injection, schedule: Q04DX003 (ip), vehicle: Klucel (hydroxypropylcellulose) (HPC)); 0 of 6 (dose: 80.0 mg/kg/injection, schedule: Q04DX003 (ip), vehicle: Klucel (hydroxypropylcellulose) (HPC)). In addition, the survivor count under setting [7] was 2 of 6, the survivor count under setting [8] is on record as 0 of 6 and the survivor count under setting [9] is 0 of 6.

`CN(C)C1CCCC(OC(=O)c2ccccc2)C1` (stereo unspecified): the survivor count (dose: 200.0 mg/kg/injection, schedule: Q04DX003 (ip), vehicle: saline sonified) is reported as 6 of 6 and the survivor count (dose: 400.0 mg/kg/injection, schedule: Q04DX003 (ip), vehicle: saline sonified) is on record as 0 of 6.

As for `CC(=O)C(CCC#N)C(C)=O.CC(=O)C(CCC#N)C(C)=O.[Cu]`, the survivor count reads like this: (dose: 50.0 mg/kg/injection, schedule: Q04DX003 (ip), vehicle: Klucel (hydroxypropylcellulose) (HPC)) 2 of 6; under setting [7], 0 of 6; under setting [8], 0 of 6; under setting [9], 1 of 6.
